Article doi:10.1101/2024.01.16.575602
Results are given in words; binding and its absence hold for the method and conditions named. In cells and extracts the contact can be indirect. Some entries that bind do so weakly or less than the wild type.

Sequences of proteins named here, by UniProt entry; tags and fusion partners are left off.
UniProt P43694: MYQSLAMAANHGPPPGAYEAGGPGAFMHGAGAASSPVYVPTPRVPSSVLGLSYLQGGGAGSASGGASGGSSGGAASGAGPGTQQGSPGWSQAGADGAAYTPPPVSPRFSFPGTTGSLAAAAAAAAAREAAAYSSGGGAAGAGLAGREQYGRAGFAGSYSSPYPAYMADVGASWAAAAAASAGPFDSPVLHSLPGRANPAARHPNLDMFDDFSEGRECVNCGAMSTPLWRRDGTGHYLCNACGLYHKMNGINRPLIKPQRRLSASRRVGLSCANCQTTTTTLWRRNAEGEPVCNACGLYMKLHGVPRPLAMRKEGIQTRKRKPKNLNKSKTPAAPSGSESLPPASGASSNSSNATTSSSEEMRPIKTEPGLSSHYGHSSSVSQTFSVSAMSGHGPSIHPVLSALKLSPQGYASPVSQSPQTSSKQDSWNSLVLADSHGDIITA
UniProt Q09472: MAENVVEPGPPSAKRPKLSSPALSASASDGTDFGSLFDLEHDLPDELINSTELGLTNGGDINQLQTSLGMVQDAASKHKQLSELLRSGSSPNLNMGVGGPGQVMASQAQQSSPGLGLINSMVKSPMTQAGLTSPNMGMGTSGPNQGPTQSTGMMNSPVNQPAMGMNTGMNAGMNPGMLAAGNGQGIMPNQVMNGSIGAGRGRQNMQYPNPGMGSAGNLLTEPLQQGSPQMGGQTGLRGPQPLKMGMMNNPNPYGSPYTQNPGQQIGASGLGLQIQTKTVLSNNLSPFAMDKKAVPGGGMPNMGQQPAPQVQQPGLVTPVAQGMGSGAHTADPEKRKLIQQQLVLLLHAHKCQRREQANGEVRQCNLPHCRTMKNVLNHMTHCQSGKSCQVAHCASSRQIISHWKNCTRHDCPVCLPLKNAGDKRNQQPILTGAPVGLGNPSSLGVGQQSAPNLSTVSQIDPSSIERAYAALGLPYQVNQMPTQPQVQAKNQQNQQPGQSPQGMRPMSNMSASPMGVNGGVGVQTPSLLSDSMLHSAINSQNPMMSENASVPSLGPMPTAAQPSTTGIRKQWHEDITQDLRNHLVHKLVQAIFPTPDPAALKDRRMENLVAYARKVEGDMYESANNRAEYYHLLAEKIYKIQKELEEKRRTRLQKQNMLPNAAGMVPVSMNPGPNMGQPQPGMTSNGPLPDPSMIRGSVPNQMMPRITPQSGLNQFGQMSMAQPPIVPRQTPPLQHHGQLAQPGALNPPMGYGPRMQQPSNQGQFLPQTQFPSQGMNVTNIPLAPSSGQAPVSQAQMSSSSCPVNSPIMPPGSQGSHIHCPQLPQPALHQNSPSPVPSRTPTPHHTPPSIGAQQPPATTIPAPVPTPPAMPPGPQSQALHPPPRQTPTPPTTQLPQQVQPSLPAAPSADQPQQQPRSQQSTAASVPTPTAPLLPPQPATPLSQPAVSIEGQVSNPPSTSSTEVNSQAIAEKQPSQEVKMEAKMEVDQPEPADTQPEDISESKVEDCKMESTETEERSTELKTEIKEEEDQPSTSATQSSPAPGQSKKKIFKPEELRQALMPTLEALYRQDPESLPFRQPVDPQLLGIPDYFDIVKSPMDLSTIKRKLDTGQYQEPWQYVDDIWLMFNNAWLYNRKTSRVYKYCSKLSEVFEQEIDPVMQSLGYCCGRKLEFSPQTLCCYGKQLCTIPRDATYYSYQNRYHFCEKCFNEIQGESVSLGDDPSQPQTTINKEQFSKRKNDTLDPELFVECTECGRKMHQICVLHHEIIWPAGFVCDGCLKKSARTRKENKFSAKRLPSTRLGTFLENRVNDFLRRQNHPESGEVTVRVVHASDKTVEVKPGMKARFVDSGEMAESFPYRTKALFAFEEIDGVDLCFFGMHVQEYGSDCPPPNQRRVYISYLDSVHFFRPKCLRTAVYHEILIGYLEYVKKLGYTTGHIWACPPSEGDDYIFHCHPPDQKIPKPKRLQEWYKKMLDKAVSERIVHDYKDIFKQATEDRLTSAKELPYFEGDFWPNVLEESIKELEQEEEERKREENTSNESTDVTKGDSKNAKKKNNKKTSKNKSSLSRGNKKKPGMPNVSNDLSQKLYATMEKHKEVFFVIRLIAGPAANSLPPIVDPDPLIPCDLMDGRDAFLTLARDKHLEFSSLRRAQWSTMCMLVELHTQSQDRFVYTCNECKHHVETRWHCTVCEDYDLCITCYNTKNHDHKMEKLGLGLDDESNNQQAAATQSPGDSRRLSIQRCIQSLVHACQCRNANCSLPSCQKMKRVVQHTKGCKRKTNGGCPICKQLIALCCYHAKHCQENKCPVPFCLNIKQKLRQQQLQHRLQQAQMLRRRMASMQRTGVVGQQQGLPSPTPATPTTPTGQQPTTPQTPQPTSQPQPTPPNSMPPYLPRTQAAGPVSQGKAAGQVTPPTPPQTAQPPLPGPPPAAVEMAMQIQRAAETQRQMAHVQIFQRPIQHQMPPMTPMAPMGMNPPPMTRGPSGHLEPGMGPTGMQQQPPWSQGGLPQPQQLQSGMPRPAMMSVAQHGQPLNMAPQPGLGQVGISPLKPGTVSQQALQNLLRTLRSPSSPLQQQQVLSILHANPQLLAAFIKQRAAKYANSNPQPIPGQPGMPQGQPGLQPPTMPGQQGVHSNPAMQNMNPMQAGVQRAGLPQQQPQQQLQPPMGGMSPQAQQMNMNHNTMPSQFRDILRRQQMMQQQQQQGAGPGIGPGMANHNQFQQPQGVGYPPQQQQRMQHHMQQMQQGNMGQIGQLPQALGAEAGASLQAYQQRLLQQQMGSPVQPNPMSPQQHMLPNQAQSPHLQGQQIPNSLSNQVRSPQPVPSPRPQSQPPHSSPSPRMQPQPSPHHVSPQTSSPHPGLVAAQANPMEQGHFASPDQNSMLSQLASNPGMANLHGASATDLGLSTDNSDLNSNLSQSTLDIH

Target: GATA4 (UniProt P43694)
Assay: co-IP

- binding: binds
Substance: p300 (from UniProt Q09472 1-2414)
